Results are given in words; binding and its absence hold for the method and conditions named. In cells and extracts the contact can be indirect. Some binding calls cover weakened binding; strength is not graded here. For some assays here: Tags and fused reporters may be left off the sequences shown.

Sequences of proteins named here, by UniProt entry; tags and fusion partners are left off.
UniProt P98170: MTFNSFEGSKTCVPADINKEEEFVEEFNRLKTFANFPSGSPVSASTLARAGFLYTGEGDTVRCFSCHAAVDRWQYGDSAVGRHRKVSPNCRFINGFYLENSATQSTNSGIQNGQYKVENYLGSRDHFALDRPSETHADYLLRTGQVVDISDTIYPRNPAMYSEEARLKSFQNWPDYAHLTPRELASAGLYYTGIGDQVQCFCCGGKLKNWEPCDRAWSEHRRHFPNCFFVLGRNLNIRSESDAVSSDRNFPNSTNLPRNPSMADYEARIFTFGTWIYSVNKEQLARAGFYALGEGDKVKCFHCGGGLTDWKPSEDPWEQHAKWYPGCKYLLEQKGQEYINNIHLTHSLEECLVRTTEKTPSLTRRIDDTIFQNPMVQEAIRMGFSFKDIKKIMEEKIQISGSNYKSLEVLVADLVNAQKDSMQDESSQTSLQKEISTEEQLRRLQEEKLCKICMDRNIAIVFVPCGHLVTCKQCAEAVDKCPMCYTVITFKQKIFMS

Test [1] has as its target T1, Flag-tagged TRIP-Br3 expressed from pEF/TRIP-Br3 (UniProt Q9BXL8).
T1 sequence: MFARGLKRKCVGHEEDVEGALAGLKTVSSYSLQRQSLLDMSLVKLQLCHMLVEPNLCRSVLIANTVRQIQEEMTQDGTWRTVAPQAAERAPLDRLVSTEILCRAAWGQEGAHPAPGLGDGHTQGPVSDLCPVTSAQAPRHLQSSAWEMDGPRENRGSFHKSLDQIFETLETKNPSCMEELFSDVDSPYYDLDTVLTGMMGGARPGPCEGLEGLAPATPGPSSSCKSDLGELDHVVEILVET
Description: co-IP; competition: HEK293T cells transfected with pEF/TRIP-Br3 (1 μg/ml) without or with pEF/TRIP-Br1 (1 or 2 μg/ml), complete medium 48 h; IP with anti-TRIP-Br3 or anti-XIAP antibody; Western blot. On the technique in general: A western blot detects proteins with antibodies after separation by electrophoresis.

In test [2] the target is T1, Flag-tagged TRIP-Br3 expressed from pEF/TRIP-Br3. Nature of the test: co-IP; HEK293T cells transfected with pEF/TRIP-Br3; lysate immunoprecipitated, protein A/G agarose, 4°C; wash 900 mM NaCl, 0.5% NP-40; Western blot.
The target in test [3] is T2, TRIP-Br3 (Transcriptional Regulator Interacting with the PHD-Bromo-domain 3), endogenous in MCF7 cells (human (endogenous in MCF7)) (UniProt Q9BXL8).
T2 sequence: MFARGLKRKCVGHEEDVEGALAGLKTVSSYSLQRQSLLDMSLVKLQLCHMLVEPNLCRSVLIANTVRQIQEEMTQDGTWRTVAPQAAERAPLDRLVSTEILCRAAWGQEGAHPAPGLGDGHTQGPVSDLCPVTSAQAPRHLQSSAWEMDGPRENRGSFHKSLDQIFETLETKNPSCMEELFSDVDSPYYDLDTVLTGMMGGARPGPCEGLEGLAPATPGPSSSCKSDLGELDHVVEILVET
Description: co-IP; endogenous proteins, MCF7 cells in complete medium harvested at 90% confluence; IP with anti-TRIP-Br3 or anti-XIAP antibody, protein A/G agarose, 4°C; lysis 150 mM NaCl, 25 mM Tris-HCl pH 8.0, 1 mM EDTA, 10% glycerol, NP-40; wash 900 mM NaCl, 0.5% NP-40; Western blot.

Test [4] deals with T1, Flag-tagged TRIP-Br3 expressed from pEF/TRIP-Br3. Nature of the test: co-IP; HEK293T cells co-transfected with pEF/TRIP-Br3 and flag-tagged XIAP, XIAP-ΔBIR2 or XIAP-ΔRING (control vector pCMV); IP with anti-TRIP-Br3 antibody; Western blot.
Test [5] has as its target XIAP (X-linked inhibitor of apoptosis protein), endogenous in HEK293T cells (human (endogenous in HEK293T)) (UniProt P98170). Nature of the test: co-IP; competition: HEK293T cells transfected with pEF/TRIP-Br3 (1 μg/ml) without or with pEF/TRIP-Br1 (1 or 2 μg/ml), complete medium 48 h; IP with anti-TRIP-Br3 or anti-XIAP antibody; Western blot.

Regarding “XIAP (X-linked inhibitor of apoptosis protein), endogenous in HEK293T cells (from UniProt P98170 1-497)”, the binding result in test [1] and in test [2] was “binds” throughout.

As for “XIAP (X-linked inhibitor of apoptosis protein), endogenous in MCF7 cells (from UniProt P98170 1-497)”, the binding entry in test [3] is on record as “binds”.

Consider “flag-tagged full length XIAP (from UniProt P98170 1-497)”, for which, in test [4], the binding entry is reported as “binds”.

B1: Flag-tagged TRIP-Br1 expressed from pEF/TRIP-Br1 (protein, UniProt Q9UHV2 1-236)
chain: MLSKGLKRKREEEEEKEPLAVDSWWLDPGHTAVAQAPPAVASSSLFDLSVLKLHHSLQQSEPDLRHLVLVVNTLRRIQASMAPAAALPPVPSPPAAPSVADNLLASSDAALSASMASLLEDLSHIEGLSQAPQPLADEGPPGRSIGGAAPSLGALDLLGPATGCLLDDGLEGLFEDIDTSMYDNELWAPASEGLKPGPEDGPGKEEAPELDEAELDYLMDVLVGTQALERPPGPGR
Regarding B1, the binding entry in test [5] is on record as “binds”.

These data come from paper PMC4480697.
